Laboratory results as given in CN116023497A.
Results are given in words; binding and its absence hold for the method and conditions named. Some entries that bind do so weakly or less than the wild type.

By UniProt entry, the sequences of proteins in these tests, tags left out. Residues count along the entry.
UniProt Q08345, residues 19-913: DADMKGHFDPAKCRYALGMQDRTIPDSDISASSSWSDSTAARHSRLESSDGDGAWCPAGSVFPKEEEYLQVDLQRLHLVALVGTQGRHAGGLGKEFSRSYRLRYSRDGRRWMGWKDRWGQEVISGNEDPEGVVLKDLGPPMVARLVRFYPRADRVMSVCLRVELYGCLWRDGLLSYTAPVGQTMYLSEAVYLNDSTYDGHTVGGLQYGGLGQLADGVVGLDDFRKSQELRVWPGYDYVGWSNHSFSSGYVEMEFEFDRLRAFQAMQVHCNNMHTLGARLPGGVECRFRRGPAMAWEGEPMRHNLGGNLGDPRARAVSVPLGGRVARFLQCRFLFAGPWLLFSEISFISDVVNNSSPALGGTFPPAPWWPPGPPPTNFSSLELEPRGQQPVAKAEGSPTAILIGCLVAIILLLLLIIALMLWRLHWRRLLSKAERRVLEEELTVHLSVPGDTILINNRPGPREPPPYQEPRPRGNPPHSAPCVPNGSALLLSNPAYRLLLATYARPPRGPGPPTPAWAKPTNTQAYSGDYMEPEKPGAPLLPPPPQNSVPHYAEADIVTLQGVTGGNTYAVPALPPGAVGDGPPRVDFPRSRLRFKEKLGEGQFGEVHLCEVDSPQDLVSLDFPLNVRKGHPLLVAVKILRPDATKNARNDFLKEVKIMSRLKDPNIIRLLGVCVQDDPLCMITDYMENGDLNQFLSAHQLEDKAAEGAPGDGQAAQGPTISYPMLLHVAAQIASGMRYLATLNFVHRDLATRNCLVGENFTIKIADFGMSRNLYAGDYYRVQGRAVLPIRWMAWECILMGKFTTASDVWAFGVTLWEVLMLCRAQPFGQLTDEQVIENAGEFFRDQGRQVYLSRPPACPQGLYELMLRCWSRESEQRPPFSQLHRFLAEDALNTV

Target: DDR1 on HT-29 cells (human) (UniProt Q08345)
Experiment: confocal immunofluorescence, HT-29 cells, 4℃ 40 min

binding: binds
B1: Tytug抗体 (antibody, IgG1, V domains shown)
VH: QVQLQQPGAELVRPGSSVRLSCKASGYSFTSYWMNWVKQRPGQGLEWIGMIHPSDSKTRLDQKFKDKATLTVDKSSSTAYMQLSSPTSEDSAVYYCAREGTYYYAMDFWGQGTSVTVSS
VL: DVLMTQTPLSLPVSLGDQASISCRSSQTIVHSNGNTYLEWYLQKPGQSPKLLIYKVSNRFSGVPDRFSGSGSGTDFTLKISRVEAEDLGVYYCFQGSHDPYTFGGGTKLEIK
